Experimental findings from paper PMC5186766 are described below.

These are yes or no findings as the source states them, for the method shown. Binding seen in cells or lysates may run through a third protein. Binding can be weak; no strength is given.

In this assay the target is GST.pVIII fusion protein (BAdV-3 pVIII) (bovine adenovirus 3 (BAdV-3)). The assay is described as follows: pull-down; 10 μl Flexi rabbit reticulocyte lysate incubated at 4°C with 10 μl GST beads holding 750 ng GST or GST.pVIII, centrifuged; pellet and supernatant blotted; only the target purified.

B1: DDX3, endogenous in rabbit reticulocyte lysate (protein, UniProt G1T336 1-662)
chain: MSHVAVENALGLDQQFAGLDLNSSDNQTGGSTASKGRYIPPHLRNREATKGFYDKDSSGWSSSKDKDAYSSFGSRGDSRGKSSFFSDRGSGSRGRFDDRGRGDYDGIGSRGDRSGFGKFERGGNSRWCDKSDEDDWSKPLPPSERLEQELFSGGNTGINFEKYDDIPVEATGNNCPPHIESFSDVEMGEIIMGNIELTRYTRPTPVQKHAIPIIKEKRDLMACAQTGSGKTAAFLLPILSQIYSDGPGEALRAMKENGRYGRRKQYPISLVLAPTRELAVQIYEEARKFSYRSRVRPCVVYGGADIGQQIRDLERGCHLLVATPGRLVDMMERGKIGLDFCKYLVLDEADRMLDMGFEPQIRRIVEQDTMPPKGVRHTMMFSATFPKEIQMLARDFLDEYIFLAVGRVGSTSENITQKVVWVEESDKRSFLLDLLNATGKDSLTLVFVETKKGADSLEDFLYHEGYACTSIHGDRSQRDREEALHQFRSGKSPILVATAVAARGLDISNVKHVINFDLPSDIEEYVHRIGRTGRVGNLGLATSFFNERNVNITKDLLDLLVEAKQEVPSWLENMAYEHHYKGSSRGRSKSSRFSGGFGARDYRQSSGASSSSFSSSRASSSRSGGGGHGGSRGFGGGGYGGFYNSDGYGGNYNSQGVDWWGN
With B1, the binding entry was “binds”.
